Experimental data: PubChem BioAssay AID504774 (Drosophila RNAi Screening Center, 2011)
In all, the deposit lists about 23,000 reagents; this is an unselected part of those with a known target gene and a result. 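Values are quantile-normalised luminescence on an arbitrary scale; higher means more cells surviving MMS.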 Reagents against one gene are numbered here. A plus sign joins genes that one reagent is predicted to hit. Not all columns of the deposit are shown.

- Assay: 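Fly genes whose loss alters survival after alkylation damage to DNA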 (primary screen)
- Cell system: Drosophila Kc167 cells
- Reagents: long dsRNA against Drosophila genes, about 0.25 µg dsRNA per well
- Duration: about 6 days: 3 days knock-down, then 3 days with or without MMS
- Conditions: methyl methanesulphonate 0.004% (w/v) for 3 days after knock-down
- Measured: 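Viability in wells given MMS, read as ATP luminescence, normalised by quantiles plate by plate and averaged across replicates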
- Reading the numbers: mean viability with MMS and viability with MMS: higher = more surviving cells after MMS

CG30087 gave mean viability with MMS 3.70e6; viability with MMS, replicate 1 = 4.12e6.
After knock-down of CG13919, the screen gave mean viability with MMS 3.51e6; viability with MMS, replicate 1 = 4.04e6.
After knock-down of CG13255, the record shows mean viability with MMS 3.57e6; viability with MMS, replicate 1 = 4.05e6.
Silencing of SrpRbeta (Signal recognition particle receptor beta) came out at: mean viability with MMS 3.62e6; viability with MMS, replicate 1 = 4.06e6.
For nur (nemuri) the deposit lists mean viability with MMS 3.24e6; viability with MMS, replicate 1 = 3.63e6.
CG12935 showed mean viability with MMS 3.58e6; viability with MMS, replicate 1 = 4.07e6.
For Eato (Engulfment ABC Transporter in the ovary) #1 the deposit lists mean viability with MMS 3.68e6; viability with MMS, replicate 1 = 4.19e6.
After knock-down of Eato (Engulfment ABC Transporter in the ovary) #2 the results were mean viability with MMS 3.54e6; viability with MMS, replicate 1 = 3.97e6.
Silencing of CG7646 gave: mean viability with MMS 3.49e6; viability with MMS, replicate 1 = 3.94e6.
After knock-down of CG16953, the record shows mean viability with MMS 3.51e6; viability with MMS, replicate 1 = 3.97e6.
Knock-down of CG10804 gave: mean viability with MMS 3.56e6; viability with MMS, replicate 1 = 4.00e6.
CG1324 showed mean viability with MMS 3.45e6; viability with MMS, replicate 1 = 3.82e6.
With knock-down of Oseg4 (Outer segment 4), the record shows mean viability with MMS 3.48e6; viability with MMS, replicate 1 = 3.93e6.
With knock-down of Vps20 (Vacuolar protein sorting 20), the record shows mean viability with MMS 3.57e6; viability with MMS, replicate 1 = 3.93e6.
Against ATP8A (ATPase 8A) #1, the values are mean viability with MMS 3.67e6; viability with MMS, replicate 1 = 4.07e6.
ATP8A (ATPase 8A) #2 showed mean viability with MMS 3.45e6; viability with MMS, replicate 1 = 3.99e6.
After knock-down of ATP8A (ATPase 8A) #3, the screen gave mean viability with MMS 3.66e6; viability with MMS, replicate 1 = 4.17e6.
After knock-down of CG34195 the results were mean viability with MMS 3.46e6; viability with MMS, replicate 1 = 3.91e6.
dpr18 (defective proboscis extension response 18) gave mean viability with MMS 3.54e6; viability with MMS, replicate 1 = 4.04e6.
After knock-down of CG33458 the results were mean viability with MMS 3.51e6; viability with MMS, replicate 1 = 3.99e6.
Silencing of Hsepi (Heparan sulfate C5-epimerase) resulted in: mean viability with MMS 3.48e6; viability with MMS, replicate 1 = 3.95e6.
With knock-down of CG4042, the screen gave mean viability with MMS 3.69e6; viability with MMS, replicate 1 = 4.24e6.
CG34202 scored mean viability with MMS 3.34e6; viability with MMS, replicate 1 = 3.86e6.
Knock-down of nemy (no extended memory) #1 gave: mean viability with MMS 3.46e6; viability with MMS, replicate 1 = 4.00e6.
For nemy (no extended memory) #2, the entry reads mean viability with MMS 3.42e6; viability with MMS, replicate 1 = 3.91e6.
CG15022 scored mean viability with MMS 3.67e6; viability with MMS, replicate 1 = 4.52e6.
After knock-down of fos28F (retired record), the screen gave mean viability with MMS 3.72e6; viability with MMS, replicate 1 = 4.31e6.
With knock-down of Scp2 (Sarcoplasmic calcium-binding protein 2) #1, the screen gave mean viability with MMS 3.64e6; viability with MMS, replicate 1 = 4.07e6.
Silencing of Scp2 (Sarcoplasmic calcium-binding protein 2) #2 resulted in: mean viability with MMS 3.54e6; viability with MMS, replicate 1 = 4.06e6.
For su(w[a]) (suppressor of white-apricot) the deposit lists mean viability with MMS 3.03e6; viability with MMS, replicate 1 = 3.67e6.
Against bw (brown) #1, the entry reads mean viability with MMS 3.57e6; viability with MMS, replicate 1 = 4.14e6.
Against bw (brown) #2, the values are mean viability with MMS 3.74e6; viability with MMS, replicate 1 = 4.22e6.
CG5554 gave mean viability with MMS 3.30e6; viability with MMS, replicate 1 = 3.74e6.
Spn55B (Serpin 55B) #1 scored mean viability with MMS 3.57e6; viability with MMS, replicate 1 = 3.89e6.
Spn55B (Serpin 55B) #2 gave mean viability with MMS 3.51e6; viability with MMS, replicate 1 = 4.03e6.
Against CG8677 + CG31626, the values are mean viability with MMS 3.55e6; viability with MMS, replicate 1 = 4.02e6.
Depletion of NimB5 (Nimrod B5) resulted in: mean viability with MMS 3.60e6; viability with MMS, replicate 1 = 4.12e6.
Knock-down of CG31809 resulted in: mean viability with MMS 3.52e6; viability with MMS, replicate 1 = 4.01e6.
With knock-down of CG17211, the record shows mean viability with MMS 3.71e6; viability with MMS, replicate 1 = 4.14e6.
Depletion of Hex-A (Hexokinase A) resulted in: mean viability with MMS 3.49e6; viability with MMS, replicate 1 = 3.97e6.
For Awh (Arrowhead), the entry reads mean viability with MMS 3.55e6; viability with MMS, replicate 1 = 4.03e6.
With knock-down of PpD5 (Protein phosphatase D5) #1, the screen gave mean viability with MMS 3.43e6; viability with MMS, replicate 1 = 3.79e6.
Against PpD5 (Protein phosphatase D5) #2, the values are mean viability with MMS 3.54e6; viability with MMS, replicate 1 = 4.12e6.
For CG32628 (retired record) the deposit lists mean viability with MMS 3.54e6; viability with MMS, replicate 1 = 3.96e6.
gNacalpha scored mean viability with MMS 3.46e6; viability with MMS, replicate 1 = 3.96e6.

6 entries from above, reduced to “viability with MMS, replicate 1”:
Vps20 (Vacuolar protein sorting 20) = 3.93e6
ATP8A (ATPase 8A) #1 = 4.07e6
ATP8A (ATPase 8A) #2 = 3.99e6
ATP8A (ATPase 8A) #3 = 4.17e6
CG34195 = 3.91e6
dpr18 (defective proboscis extension response 18) = 4.04e6
